Experiment [1] deals with T1, φ6 protein P1 (bacteriophage φ6) (UniProt P11126).
T1 sequence: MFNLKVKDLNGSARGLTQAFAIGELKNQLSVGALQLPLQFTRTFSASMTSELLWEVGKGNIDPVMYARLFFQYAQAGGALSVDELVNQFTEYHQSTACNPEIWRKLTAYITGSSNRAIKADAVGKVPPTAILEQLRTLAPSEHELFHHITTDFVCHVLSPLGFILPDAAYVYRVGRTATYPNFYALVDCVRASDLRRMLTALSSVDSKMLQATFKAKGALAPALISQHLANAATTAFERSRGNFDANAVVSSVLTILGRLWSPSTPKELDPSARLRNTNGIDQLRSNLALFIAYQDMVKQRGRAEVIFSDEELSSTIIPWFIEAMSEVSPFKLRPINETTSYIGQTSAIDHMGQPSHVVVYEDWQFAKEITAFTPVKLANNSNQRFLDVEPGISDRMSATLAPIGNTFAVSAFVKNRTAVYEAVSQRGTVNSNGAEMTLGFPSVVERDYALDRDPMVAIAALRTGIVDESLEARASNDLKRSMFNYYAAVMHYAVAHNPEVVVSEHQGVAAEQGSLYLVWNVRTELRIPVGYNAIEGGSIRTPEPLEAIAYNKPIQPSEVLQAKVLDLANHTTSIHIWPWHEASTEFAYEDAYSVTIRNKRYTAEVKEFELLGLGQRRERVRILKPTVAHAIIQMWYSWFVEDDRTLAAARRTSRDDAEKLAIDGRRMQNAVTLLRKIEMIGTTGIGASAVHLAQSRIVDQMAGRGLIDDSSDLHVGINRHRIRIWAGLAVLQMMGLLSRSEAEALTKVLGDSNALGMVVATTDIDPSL
In words: asymmetrical flow field-flow fractionation (AF4) with SDS-PAGE of fractions; NC (NC2 input or AF4-purified NC) treated with 25 mM EGTA, 1 mM ATP, RT, 30 min; AF4 in 10 mM potassium phosphate pH 7.2, 1 mM MgCl2, 150 mM NaCl, 20 mM EGTA; 22 °C.

Experiment [2] concerns the target T1, φ6 protein P1 (bacteriophage φ6). In words: asymmetrical flow field-flow fractionation (AF4) with SDS-PAGE of fractions; Triton X-114-extracted φ6 virions (NC1 input, NC2 input); 10 mM potassium phosphate pH 7.2, 1 mM MgCl2, 0.1 mM CaCl2, 150 mM NaCl; 22 °C; proteins of the late-eluting NC peak seen by Coomassie-stained SDS-PAGE.

Results are given in words; binding and its absence hold for the method and conditions named. Some binding calls cover weakened binding; strength is not graded here.

B1: φ6 protein P8 (protein, UniProt P07579 1-149)
chain: MLLPVVARAAVPAIESAIAATPGLVSRIAAAIGSKVSPSAILAAVKSNPVVAGLTLAQIGSTGYDAYQQLLENHPEVAEMLKDLSFKADEIQPDFIGNLGQYREELELVEDAARFVGGMSNLIRLRQALELDIKYYGLKMQLNDMGYRS
Consider B1, for which the binding result in experiment [1] was “no binding (condition: with 25 mM EGTA (Ca2+ chelation))”; in experiment [2], “binds”.

B2: φ6 protein P2 (protein, UniProt P11124 1-665)
chain: MPRRAPAFPLSDIKAQMLFANNIKAQQASKRSFKEGAIETYEGLLSVDPRFLSFKNELSRYLTDHFPANVDEYGRVYGNGVRTNFFGMRHMNGFPMIPATWPLASNLKKRADADLADGPVSERDNLLFRAAVRLMFSDLEPVPLKIRKGSSTCIPYFSNDMGTKIEIAERALEKAEEAGNLMLQGKFDDAYQLHQMGGAYYVVYRAQSTDAITLDPKTGKFVSKDRMVADFEYAVTGGEQGSLFAASKDASRLKEQYGIDVPDGFFCERRRTAMGGPFALNAPIMAVAQPVRNKIYSKYAYTFHHTTRLNKEEKVKEWSLCVATDVSDHDTFWPGWLRDLICDELLNMGYAPWWVKLFETSLKLPVYVGAPAPEQGHTLLGDPSNPDLEVGLSSGQGATDLMGTLLMSITYLVMQLDHTAPHLNSRIKDMPSACRFLDSYWQGHEEIRQISKSDDAILGWTKGRALVGGHRLFEMLKEGKVNPSPYMKISYEHGGAFLGDILLYDSRREPGSAIFVGNINSMLNNQFSPEYGVQSGVRDRSKRKRPFPGLAWASMKDTYGACPIYSDVLEAIERCWWNAFGESYRAYREDMLKRDTLELSRYVASMARQAGLAELTPIDLEVLADPNKLQYKWTEADVSANIHEVLMHGVSVEKTERFLRSVMPR
Consider B2, for which the binding result in experiment [1] and in experiment [2] was “binds” in each case.

B3: φ6 protein P4 (protein, UniProt P11125 1-332)
chain: MPIVVTQAHIDRVGIAADLLDASPVSLQVLGRPTAINTVVIKTYIAAVMELASKQGGSLAGVDIRPSVLLKDTAIFTKPKAKSADVESDVDVLDTGIYSVPGLARKPVTHRWPSEGIYSGVTALMGATGSGKSITLNEKLRPDVLIRWGEVAEAYDELDTAVHISTLDEMLIVCIGLGALGFNVAVDSVRPLLFRLKGAASAGGIVAVFYSLLTDISNLFTQYDCSVVMVVNPMVDAEKIEYVFGQVMASTVGAILCADGNVSRTMFRTNKGRIFNGAAPLAADTHMPSMDRPTSMKALDHTSIASVAPLERGSVDTDDRNSAPRRGANFSL
For B3, the binding result in experiment [1] and in experiment [2] was “binds” in each case.

The record behind these values is article PMC6265779.
